Source: article PMC12043082
Results are given in words; binding and its absence hold for the method and conditions named. Binding seen in cells or lysates may run through a third protein. Some results given as binding are weak or reduced against the parent protein; the word gives no strength.

By UniProt entry, the sequences of proteins in these tests, tags left out.
UniProt Q5EG47: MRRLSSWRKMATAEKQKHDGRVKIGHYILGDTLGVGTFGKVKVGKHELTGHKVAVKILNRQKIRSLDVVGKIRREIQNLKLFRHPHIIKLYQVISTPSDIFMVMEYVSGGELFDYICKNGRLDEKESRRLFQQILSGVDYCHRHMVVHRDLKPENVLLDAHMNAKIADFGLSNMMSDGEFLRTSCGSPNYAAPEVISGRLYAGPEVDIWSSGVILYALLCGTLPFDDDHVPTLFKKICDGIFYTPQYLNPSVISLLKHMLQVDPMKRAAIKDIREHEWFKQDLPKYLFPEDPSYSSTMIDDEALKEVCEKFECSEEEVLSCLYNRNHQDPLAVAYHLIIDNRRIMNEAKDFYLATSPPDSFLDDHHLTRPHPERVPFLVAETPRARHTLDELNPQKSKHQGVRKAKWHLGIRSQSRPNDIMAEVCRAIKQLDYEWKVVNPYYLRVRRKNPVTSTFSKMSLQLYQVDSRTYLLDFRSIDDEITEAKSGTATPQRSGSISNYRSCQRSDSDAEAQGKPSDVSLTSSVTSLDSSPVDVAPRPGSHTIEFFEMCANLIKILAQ
UniProt P13864: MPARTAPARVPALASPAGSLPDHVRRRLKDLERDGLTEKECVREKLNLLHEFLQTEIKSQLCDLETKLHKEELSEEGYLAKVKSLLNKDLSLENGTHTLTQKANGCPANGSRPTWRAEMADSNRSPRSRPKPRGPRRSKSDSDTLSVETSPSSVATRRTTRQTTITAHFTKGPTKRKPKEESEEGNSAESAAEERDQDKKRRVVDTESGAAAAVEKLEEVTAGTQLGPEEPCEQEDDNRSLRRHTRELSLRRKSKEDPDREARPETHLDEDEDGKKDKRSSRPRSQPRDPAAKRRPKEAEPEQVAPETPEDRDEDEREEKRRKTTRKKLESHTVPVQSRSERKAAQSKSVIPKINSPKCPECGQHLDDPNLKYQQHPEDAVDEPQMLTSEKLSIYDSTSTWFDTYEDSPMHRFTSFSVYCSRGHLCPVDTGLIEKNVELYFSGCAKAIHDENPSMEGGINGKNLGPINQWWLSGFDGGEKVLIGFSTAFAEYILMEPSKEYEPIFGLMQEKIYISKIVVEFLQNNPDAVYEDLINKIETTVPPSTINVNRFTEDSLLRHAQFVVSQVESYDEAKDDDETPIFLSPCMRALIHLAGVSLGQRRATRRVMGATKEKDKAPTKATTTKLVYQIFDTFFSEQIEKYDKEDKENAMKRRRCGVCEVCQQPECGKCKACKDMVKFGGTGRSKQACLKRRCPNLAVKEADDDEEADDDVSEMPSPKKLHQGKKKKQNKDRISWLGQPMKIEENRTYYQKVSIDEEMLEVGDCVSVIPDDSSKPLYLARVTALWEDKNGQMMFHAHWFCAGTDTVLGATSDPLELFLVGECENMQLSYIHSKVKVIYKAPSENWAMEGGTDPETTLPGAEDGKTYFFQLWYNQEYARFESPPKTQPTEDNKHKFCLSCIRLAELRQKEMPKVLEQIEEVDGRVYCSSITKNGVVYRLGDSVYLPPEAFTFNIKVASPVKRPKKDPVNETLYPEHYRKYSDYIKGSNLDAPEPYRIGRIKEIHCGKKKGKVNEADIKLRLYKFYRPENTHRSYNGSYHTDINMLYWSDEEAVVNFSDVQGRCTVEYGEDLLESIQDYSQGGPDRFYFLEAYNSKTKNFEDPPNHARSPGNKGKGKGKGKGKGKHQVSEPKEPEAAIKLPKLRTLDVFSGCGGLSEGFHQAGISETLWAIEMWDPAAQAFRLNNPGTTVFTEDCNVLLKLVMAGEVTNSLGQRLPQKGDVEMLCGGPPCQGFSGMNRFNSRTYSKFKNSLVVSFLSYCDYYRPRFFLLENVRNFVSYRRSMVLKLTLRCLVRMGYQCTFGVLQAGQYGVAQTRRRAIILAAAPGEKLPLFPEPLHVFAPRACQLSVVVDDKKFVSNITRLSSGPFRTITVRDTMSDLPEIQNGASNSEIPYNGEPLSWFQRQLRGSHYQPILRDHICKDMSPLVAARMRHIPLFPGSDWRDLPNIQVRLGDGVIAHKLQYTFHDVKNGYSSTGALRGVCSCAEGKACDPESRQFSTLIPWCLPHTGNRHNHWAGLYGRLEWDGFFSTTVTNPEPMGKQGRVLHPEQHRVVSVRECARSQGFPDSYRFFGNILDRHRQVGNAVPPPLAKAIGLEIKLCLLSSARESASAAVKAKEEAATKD

Molecular target: AMPKα1 (α1 catalytic subunit of AMP-activated protein kinase), mouse (mouse (endogenous in primary iTreg cells)) (UniProt Q5EG47)
Test: co-IP; lysate of 1 x 10^6 primary mouse iTreg cells; anti-AMPKα1 (Abcam ab32047) or isotype control overnight at 4°C, Protein G beads, blotted for DNMT1

binding: binds
Substance: DNA methyltransferase 1 (DNMT1), mouse (from UniProt P13864 1-1620)
